# Results are given in words; binding and its absence hold for the method and conditions named. In cells and extracts the contact can be indirect. A yes stands for co-enrichment or nearness to the bait. Other partners may have been found.
# By UniProt entry, the sequences of proteins in these tests, tags left out. Where a name states a change or a piece, a line headed by the entry shows the natural chain unless it says otherwise.
# UniProt Q587B7: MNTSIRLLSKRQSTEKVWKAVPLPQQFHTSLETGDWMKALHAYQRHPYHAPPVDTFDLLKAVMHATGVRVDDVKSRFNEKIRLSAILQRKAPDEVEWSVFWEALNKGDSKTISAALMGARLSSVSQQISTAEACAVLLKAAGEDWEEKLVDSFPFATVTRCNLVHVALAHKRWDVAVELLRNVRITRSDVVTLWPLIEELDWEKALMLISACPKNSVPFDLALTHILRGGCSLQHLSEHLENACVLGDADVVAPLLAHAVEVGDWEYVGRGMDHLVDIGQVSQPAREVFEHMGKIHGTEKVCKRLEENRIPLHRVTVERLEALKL
# UniProt Q57WZ1: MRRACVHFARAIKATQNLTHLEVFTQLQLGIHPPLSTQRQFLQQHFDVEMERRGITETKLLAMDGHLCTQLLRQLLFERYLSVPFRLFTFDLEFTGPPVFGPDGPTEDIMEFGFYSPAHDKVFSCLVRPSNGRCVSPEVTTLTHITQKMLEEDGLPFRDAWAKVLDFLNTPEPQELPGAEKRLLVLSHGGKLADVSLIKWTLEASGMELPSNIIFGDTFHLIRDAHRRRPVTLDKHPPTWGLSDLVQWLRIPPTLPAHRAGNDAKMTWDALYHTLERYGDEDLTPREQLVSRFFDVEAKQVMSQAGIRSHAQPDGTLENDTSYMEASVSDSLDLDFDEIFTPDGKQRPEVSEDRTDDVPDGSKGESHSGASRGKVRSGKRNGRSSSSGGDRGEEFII
# Target: KP37 (Tb927.6.4510) (Trypanosoma brucei (endogenous in SmOx procyclic cells)) (UniProt Q587B7)
# Assay: affinity purification with mass spectrometry
substance,measurement,value
KP45 (Tb927.3.1100) (from UniProt Q57WZ1),binding,binds

# — paper doi:10.1101/2024.04.22.590512
